Measurements reported in PubChem BioAssay AID652259 (Drosophila RNAi Screening Center, 2013)
The screen tested about 22,000 reagents; this is a random part of those with a known target gene and a result. Of all reagents, 233 (1.1%) got an active call. 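Light values are raw, unnormalised plate reads; the ratio scores behind the reporter calls were not deposited.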 Entries without a mark were called inactive. A plus sign joins genes that one reagent is predicted to hit. Not stated in the record: the amount of reagent, the time to read-out, the dose of the treatment.

Screen: 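Genome-wide hunt for genes that control Wingless pathway activity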 (primary screen)
Cell system: Drosophila clone 8 imaginal disc epithelial cells
Reagents: long dsRNA against Drosophila genes
Conditions: pathway stimulated by co-transfected Wingless expression plasmid
Read-out: 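Firefly luciferase from a tcf-site Wingless reporter, measured alongside co-transfected Renilla luciferase that tracks transfection; pathway stimulated by a Wingless plasmid; the firefly-to-Renilla ratio is not deposited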
Direction: firefly reporter light: higher = more Wg reporter light, before normalisation; Renilla control light: higher = more transfected or surviving cells
Hit rule: 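a knock-down is a candidate when at least two out of four statistical tests show it departing from its plate mean; one test alone signals a weak candidate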
Calls: active = candidate regulator (raises or lowers reporter); inactive = not a candidate

gene knocked down | amplicon | firefly reporter light, replicate 1 | firefly reporter light, replicate 2 | Renilla control light, replicate 1 | Renilla control light, replicate 2
Edg84A (GeneID 40818) | DRSC12594 | 7197 | – | 1856 | –
LysS (GeneID 38130) | DRSC08677 | 2419 | – | 1738 | –
NO66 (GeneID 31374) | DRSC18252 | 2796 | 8800 | 1217 | 2605
Mal-A2 (GeneID 35825) | DRSC07460 | 3046 | 7244 | 1029 | 2792
CG3420 (GeneID 35585) | DRSC04995 | 3655 | 7453 | 679 | 3298
CG31211 (GeneID 41443) | DRSC14953 | 8153 | – | 4049 | –
CG31211 (GeneID 41443) | DRSC15344 | 15719 | – | 4405 | –
CG31211 (GeneID 41443) | DRSC21478 | 3.85e5 | 3.68e5 | 1.64e5 | 1.25e5
twr (GeneID 40815) | DRSC12491 | 13002 | – | 3104 | –
eloF (GeneID 41211) | DRSC15162 | 11722 | – | 3687 | –
CG15145 (GeneID 35064) | DRSC02446 | 1994 | 6945 | 1040 | 3302
Nep5 (GeneID 43255) | DRSC16004 | 2051 | 6274 | 941 | 1396
CG30457 (GeneID 36940) | DRSC06661 | 9944 | 8.61e5 | 3880 | 4.56e5
HPS1 (GeneID 36656) | DRSC06195 | 11335 | – | 4828 | –
CG5989 (GeneID 38984) | DRSC10565 | 4704 | – | 1637 | –
CG10467 (GeneID 38697) | DRSC09728 | 992 | 8456 | 826 | 2876
prd (GeneID 34629) | DRSC03597 | 11104 | – | 3760 | –
Hat1 (GeneID 40716) | DRSC12298 | 17761 | – | 4400 | –
CG40005 (retired record) + cta | DRSC03763 | 20042 | – | 12043 | –

Part of the list above, reformatted:
{"gene knocked down": "LysS (GeneID 38130)", "amplicon": "DRSC08677", "firefly reporter light, replicate 1": 2419, "Renilla control light, replicate 1": 1738}
{"gene knocked down": "NO66 (GeneID 31374)", "amplicon": "DRSC18252", "firefly reporter light, replicate 1": 2796, "firefly reporter light, replicate 2": 8800, "Renilla control light, replicate 1": 1217, "Renilla control light, replicate 2": 2605}
{"gene knocked down": "Mal-A2 (GeneID 35825)", "amplicon": "DRSC07460", "firefly reporter light, replicate 1": 3046, "firefly reporter light, replicate 2": 7244, "Renilla control light, replicate 1": 1029, "Renilla control light, replicate 2": 2792}
{"gene knocked down": "CG3420 (GeneID 35585)", "amplicon": "DRSC04995", "firefly reporter light, replicate 1": 3655, "firefly reporter light, replicate 2": 7453, "Renilla control light, replicate 1": 679, "Renilla control light, replicate 2": 3298}

The list goes on.
gene knocked down | amplicon | firefly reporter light, replicate 1 | firefly reporter light, replicate 2 | Renilla control light, replicate 1 | Renilla control light, replicate 2
CG6912 (GeneID 41820) | DRSC16132 | 15491 | – | 4390 | –
CG3719 (GeneID 44736) | DRSC18493 | 3931 | – | 1149 | –
dpr12 (GeneID 50320) | DRSC04814 | 16805 | – | 10068 | –
dpr12 (GeneID 50320) | DRSC04863 | 2560 | 8053 | 672 | 3152
dpr12 (GeneID 50320) | DRSC04892 | 2402 | 6756 | 845 | 2736
Mkp + CG34140 | DRSC08585 | 11889 | – | 3640 | –
CG14154 (GeneID 39207) | DRSC10156 | 5809 | – | 2264 | –
CG7120 (GeneID 38954) | DRSC08921 | 3842 | – | 1228 | –
CG7120 (GeneID 38954) | DRSC10773 | 1558 | 4940 | 998 | 2841
FASN3 (GeneID 3355111) | DRSC20882 | 19441 | – | 9360 | –
